Results are given in words; binding and its absence hold for the method and conditions named. Some entries that bind do so weakly or less than the wild type.
What was measured:
human IL-17RC.Fc (human) [1] = experiment: indirect sandwich ELISA: IL-17RC.Fc captured on goat anti-human IgG-Fc, biotinylated cytokine titrated, Poly-HRP streptavidin
human IL-17RC.Fc (human) [2] = experiment: indirect sandwich ELISA; receptor.Fc captured on goat anti-human IgG-Fc, biotinylated cytokine titrated
human IL-17R.Fc (human) [3] = experiment: indirect sandwich ELISA: IL-17R.Fc captured on goat anti-human IgG-Fc, biotinylated cytokine titrated, Poly-HRP streptavidin
human IL-17R.Fc (human) [4] = experiment: SPR (Biacore 2000), receptor.Fc amine-coupled, cytokine injected
human IL-17RC.Fc (human) [5] = experiment: as above

Chains of the proteins cited; added tags and fusions are not shown. Lines headed by an entry give the natural chain unless they say otherwise; changes in a name come on top.
UniProt Q16552: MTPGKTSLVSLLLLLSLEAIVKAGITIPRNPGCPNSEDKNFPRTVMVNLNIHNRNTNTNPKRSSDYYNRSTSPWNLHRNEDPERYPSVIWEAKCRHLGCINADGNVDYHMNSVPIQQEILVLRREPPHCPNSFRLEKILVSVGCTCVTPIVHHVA
UniProt Q96PD4: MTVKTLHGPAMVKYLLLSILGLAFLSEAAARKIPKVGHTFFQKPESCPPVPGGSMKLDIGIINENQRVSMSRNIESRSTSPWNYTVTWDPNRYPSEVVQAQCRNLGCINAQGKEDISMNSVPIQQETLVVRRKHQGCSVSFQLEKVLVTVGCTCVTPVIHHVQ

Measured: binding

human IL-17A (from UniProt Q16552 24-155) (ligand)
binds: human IL-17RC.Fc (human) [1] | human IL-17RC.Fc (human) [2] | human IL-17R.Fc (human) [3] | human IL-17R.Fc (human) [4] | human IL-17RC.Fc (human) [5]

human IL-17F/IL-17A heterodimer (from UniProt Q96PD4 31-163; Q16552 24-155) (ligand)
binds: human IL-17RC.Fc (human) [1] | human IL-17RC.Fc (human) [2] | human IL-17R.Fc (human) [3] | human IL-17R.Fc (human) [4] | human IL-17RC.Fc (human) [5]

Reference: US20080241130A1
